Assay results from the supplement of paper PMC6411743.
± gives the standard deviation of the averaged measurements. The list shows a part of the results, in another mix than the full data.

Sequences of proteins named here, by UniProt entry; tags and fusion partners are left off. A change or cut given only in a name is not applied to a line headed by its entry.
UniProt O00178: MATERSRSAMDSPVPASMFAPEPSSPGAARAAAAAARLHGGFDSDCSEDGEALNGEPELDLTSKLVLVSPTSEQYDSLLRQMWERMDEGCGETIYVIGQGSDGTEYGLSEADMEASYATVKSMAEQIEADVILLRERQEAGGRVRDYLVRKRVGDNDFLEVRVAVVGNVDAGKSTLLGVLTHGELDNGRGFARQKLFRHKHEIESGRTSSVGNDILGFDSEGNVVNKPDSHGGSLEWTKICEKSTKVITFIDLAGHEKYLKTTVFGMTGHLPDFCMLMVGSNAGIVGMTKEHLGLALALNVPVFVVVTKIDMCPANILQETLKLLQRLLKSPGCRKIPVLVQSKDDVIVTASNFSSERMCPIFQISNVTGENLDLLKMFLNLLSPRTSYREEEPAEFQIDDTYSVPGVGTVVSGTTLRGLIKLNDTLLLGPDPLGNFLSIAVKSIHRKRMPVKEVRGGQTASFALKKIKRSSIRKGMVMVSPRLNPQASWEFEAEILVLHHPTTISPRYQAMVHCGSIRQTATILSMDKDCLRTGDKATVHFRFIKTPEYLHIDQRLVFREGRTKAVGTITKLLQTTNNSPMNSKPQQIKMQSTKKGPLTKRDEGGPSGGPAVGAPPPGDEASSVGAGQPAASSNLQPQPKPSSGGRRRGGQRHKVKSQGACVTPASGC
UniProt O14949: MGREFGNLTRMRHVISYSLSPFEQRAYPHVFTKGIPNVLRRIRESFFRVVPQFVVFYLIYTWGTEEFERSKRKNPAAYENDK
UniProt Q96DM3: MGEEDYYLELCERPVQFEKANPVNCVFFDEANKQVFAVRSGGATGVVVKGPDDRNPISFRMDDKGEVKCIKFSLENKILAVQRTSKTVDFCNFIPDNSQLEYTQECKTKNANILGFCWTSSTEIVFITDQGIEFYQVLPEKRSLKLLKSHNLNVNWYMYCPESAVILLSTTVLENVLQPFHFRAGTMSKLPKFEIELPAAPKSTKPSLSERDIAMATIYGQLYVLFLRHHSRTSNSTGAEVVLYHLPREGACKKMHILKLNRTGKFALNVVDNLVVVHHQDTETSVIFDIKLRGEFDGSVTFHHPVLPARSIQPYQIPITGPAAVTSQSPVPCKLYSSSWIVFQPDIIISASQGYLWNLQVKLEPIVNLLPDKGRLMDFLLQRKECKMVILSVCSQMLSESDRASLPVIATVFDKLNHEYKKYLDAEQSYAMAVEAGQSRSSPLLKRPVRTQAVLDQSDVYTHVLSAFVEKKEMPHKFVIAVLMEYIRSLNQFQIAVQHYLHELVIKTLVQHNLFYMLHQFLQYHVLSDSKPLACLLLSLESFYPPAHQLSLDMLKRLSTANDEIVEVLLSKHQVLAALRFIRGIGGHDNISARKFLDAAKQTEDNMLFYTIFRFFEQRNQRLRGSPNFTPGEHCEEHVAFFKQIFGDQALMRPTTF
UniProt O43149: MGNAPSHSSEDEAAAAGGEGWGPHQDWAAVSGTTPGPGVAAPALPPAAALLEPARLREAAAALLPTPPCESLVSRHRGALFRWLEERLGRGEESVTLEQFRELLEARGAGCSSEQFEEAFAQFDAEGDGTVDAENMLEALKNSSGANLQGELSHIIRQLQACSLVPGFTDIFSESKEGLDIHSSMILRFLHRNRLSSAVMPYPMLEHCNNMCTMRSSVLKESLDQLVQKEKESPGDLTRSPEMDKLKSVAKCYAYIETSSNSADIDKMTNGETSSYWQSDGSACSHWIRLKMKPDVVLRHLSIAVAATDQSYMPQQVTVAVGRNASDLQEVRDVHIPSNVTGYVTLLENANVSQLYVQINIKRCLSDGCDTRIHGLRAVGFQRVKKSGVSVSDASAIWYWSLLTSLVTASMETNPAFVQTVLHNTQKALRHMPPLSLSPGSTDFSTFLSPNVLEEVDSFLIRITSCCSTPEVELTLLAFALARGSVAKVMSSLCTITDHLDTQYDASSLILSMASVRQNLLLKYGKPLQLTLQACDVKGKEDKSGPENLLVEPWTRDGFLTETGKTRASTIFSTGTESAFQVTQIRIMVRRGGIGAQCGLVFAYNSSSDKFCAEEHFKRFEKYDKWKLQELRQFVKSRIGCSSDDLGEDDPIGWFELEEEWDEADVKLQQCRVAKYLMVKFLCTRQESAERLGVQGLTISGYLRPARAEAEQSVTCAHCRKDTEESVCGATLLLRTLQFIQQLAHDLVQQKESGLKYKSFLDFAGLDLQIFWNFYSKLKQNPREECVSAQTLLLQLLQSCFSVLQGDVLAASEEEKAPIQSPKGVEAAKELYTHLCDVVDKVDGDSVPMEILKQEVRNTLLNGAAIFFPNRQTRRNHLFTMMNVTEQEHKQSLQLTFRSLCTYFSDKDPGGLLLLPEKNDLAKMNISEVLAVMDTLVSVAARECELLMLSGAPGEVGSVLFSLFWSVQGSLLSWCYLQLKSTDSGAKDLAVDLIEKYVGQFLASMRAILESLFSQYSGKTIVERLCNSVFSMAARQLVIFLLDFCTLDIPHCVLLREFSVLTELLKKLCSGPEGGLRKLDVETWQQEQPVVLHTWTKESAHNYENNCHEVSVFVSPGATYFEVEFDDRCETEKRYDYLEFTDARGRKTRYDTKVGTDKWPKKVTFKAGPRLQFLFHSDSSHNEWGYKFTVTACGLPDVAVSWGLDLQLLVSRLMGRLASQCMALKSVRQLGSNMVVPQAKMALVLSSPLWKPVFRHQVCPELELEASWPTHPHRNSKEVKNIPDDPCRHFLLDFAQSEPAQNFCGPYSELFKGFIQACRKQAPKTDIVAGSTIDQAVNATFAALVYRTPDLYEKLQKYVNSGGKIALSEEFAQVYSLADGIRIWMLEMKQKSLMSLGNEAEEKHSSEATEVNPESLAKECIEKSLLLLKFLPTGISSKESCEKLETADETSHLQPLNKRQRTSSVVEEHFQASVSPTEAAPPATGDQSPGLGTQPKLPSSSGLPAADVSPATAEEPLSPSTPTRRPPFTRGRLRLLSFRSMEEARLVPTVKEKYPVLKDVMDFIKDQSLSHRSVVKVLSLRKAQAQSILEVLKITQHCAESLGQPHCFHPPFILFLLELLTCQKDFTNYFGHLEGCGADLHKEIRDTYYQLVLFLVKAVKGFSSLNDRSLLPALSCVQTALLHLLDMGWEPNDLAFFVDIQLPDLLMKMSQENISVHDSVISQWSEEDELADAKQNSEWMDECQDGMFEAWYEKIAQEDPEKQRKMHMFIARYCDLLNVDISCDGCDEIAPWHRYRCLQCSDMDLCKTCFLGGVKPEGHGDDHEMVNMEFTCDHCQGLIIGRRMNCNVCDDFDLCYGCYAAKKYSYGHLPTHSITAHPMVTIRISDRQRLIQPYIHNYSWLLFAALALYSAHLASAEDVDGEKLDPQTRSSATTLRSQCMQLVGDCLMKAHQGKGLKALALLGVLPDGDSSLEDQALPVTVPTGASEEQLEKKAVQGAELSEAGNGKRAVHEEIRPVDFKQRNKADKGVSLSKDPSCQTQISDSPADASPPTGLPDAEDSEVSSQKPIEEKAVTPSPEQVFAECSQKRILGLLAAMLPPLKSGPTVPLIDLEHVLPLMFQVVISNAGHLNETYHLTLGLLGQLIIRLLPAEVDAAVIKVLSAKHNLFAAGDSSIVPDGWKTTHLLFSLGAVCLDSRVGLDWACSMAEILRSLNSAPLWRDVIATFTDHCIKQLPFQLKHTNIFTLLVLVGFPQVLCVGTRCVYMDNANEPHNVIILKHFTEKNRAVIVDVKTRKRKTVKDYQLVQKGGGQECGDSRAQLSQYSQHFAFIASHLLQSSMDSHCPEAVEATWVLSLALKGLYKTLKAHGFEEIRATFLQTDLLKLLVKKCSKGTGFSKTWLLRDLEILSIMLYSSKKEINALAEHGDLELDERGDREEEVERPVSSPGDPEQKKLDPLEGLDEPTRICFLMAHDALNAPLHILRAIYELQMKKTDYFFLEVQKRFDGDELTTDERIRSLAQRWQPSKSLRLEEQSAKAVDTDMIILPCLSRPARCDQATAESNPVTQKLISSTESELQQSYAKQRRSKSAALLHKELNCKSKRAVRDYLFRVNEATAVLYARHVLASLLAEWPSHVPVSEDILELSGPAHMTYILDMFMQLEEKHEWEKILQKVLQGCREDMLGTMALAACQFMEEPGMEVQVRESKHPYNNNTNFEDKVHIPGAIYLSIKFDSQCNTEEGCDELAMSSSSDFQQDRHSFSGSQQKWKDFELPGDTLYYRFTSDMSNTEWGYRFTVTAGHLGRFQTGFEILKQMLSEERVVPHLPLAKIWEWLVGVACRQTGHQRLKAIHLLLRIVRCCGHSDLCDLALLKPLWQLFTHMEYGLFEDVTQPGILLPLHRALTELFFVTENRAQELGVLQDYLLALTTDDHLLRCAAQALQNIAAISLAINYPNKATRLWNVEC
UniProt O14907: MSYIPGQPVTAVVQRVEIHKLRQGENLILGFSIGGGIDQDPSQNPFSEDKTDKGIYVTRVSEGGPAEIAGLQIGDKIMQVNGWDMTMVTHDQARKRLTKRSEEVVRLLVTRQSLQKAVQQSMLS
UniProt O43156, whole entry: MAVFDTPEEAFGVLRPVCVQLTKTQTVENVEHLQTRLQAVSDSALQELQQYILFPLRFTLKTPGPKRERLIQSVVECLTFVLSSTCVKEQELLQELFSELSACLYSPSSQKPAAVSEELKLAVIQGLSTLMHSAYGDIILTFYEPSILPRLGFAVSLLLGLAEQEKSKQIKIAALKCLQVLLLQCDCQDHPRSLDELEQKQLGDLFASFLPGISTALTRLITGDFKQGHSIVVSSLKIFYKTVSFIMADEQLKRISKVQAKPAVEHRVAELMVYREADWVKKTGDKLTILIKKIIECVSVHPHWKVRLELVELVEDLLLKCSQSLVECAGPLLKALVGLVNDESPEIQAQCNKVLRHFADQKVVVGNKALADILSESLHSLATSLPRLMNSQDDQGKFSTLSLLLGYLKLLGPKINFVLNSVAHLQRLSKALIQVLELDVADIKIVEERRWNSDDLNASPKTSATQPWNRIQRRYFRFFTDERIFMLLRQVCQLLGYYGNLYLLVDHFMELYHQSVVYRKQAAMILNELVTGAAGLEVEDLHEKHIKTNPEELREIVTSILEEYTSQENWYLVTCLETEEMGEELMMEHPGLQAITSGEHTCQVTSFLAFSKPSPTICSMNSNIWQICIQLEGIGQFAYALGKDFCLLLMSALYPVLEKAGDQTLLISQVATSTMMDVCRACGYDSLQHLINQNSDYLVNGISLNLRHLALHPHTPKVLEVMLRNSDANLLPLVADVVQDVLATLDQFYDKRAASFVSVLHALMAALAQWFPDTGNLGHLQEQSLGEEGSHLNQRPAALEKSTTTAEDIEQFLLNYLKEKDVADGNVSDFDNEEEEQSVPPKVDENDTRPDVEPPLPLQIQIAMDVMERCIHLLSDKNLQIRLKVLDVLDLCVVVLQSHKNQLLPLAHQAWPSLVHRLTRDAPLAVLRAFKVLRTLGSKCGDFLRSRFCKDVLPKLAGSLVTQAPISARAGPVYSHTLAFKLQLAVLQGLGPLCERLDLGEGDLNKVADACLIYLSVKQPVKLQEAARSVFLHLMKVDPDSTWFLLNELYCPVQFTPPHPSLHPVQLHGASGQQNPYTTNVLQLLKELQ
UniProt Q9H6Z4: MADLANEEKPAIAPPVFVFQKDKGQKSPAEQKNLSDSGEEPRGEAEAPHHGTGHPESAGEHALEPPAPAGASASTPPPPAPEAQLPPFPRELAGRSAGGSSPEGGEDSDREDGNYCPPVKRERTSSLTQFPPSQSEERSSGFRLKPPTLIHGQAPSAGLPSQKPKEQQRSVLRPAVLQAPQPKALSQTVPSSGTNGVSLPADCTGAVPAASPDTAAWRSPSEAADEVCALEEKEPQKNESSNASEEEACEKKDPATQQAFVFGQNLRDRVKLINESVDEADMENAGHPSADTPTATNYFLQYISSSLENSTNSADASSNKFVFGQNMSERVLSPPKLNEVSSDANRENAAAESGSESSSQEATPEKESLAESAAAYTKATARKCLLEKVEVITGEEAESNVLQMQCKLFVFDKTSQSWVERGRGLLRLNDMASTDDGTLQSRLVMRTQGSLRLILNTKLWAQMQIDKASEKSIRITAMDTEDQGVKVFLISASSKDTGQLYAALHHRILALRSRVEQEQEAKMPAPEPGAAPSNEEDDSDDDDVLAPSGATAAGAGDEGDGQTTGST
UniProt O14925: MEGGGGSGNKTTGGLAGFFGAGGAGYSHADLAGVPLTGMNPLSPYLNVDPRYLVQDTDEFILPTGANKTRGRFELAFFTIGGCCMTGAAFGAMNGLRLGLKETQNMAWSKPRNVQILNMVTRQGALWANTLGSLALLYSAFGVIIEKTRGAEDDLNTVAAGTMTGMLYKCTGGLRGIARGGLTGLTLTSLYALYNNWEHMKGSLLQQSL
UniProt Q5SRD1: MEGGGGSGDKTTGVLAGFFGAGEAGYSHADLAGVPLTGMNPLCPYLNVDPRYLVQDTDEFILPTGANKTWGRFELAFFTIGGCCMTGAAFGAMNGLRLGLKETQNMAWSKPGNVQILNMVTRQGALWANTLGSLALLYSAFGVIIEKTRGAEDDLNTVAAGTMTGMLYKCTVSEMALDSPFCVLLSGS

compound: Nc1ncnc2c1ncn2[C@@H]1O[C@H](COP(=O)(O)OP(=O)(O)NP(=O)(O)O)[C@@H](O)[C@H]1O [adenylyl imidodiphosphate]; assay: NP40-soluble protein abundance relative to vehicle (solubility fold change) (ratio); higher = more soluble protein in presence of AMP-PNP; settings: concentration: 4mM
Summary of the method: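 Data come from three independent experiments in which Dounce-homogenised Jurkat crude lysate was treated at eight concentrations from 0.1 to 10 mM. Treatment ran 10 min at room temperature and then 3 min at 37 °C, after which 0.8% NP40 and benzonase were added for 60 min at 4 °C before ultracentrifugation. The supernatant underwent TMT labelling and LC-MS/MS, and vsn-normalised intensities were expressed as fold change against the detergent-processed vehicle in each replicate.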

Question: GTPBP1 (UniProt O00178) was tested. Which NP40-soluble protein abundance did it give?
Answer: Its NP40-soluble protein abundance is 1.07 ± 0.039.

Question: How did the NP40-soluble protein abundance turn out when PIK3C2A (UniProt O00443) was run?
Answer: The NP40-soluble protein abundance was 1.02 ± 0.047.

Question: For UQCRQ (UniProt O14949), which NP40-soluble protein abundance is on record?
Answer: Its NP40-soluble protein abundance is 0.91 ± 0.057.

Question: ARPC2 (UniProt O15144) was tested. Which NP40-soluble protein abundance did it give?
Answer: The NP40-soluble protein abundance was 0.937 ± 0.023.

Question: For XPO1 (UniProt O14980), which NP40-soluble protein abundance is on record?
Answer: Its NP40-soluble protein abundance is 0.946 ± 0.014.

Question: PAPSS1 (UniProt O43252) was tested. Which NP40-soluble protein abundance did it give?
Answer: The NP40-soluble protein abundance was 0.975 ± 0.019.

Question: With RRP9 (UniProt O43818) as the target, how does the NP40-soluble protein abundance read?
Answer: Its NP40-soluble protein abundance is 1.07 ± 0.059.

Question: With CHMP2A (UniProt O43633) as the target, how does the NP40-soluble protein abundance read?
Answer: The NP40-soluble protein abundance was 0.936 ± 0.021.

Question: For BCAT2 (UniProt O15382), which NP40-soluble protein abundance is on record?
Answer: Its NP40-soluble protein abundance is 0.954 ± 0.033.

Question: “M0QYS1 and related entries (UniProt P40429)” was tested. Which NP40-soluble protein abundance did it give?
Answer: The NP40-soluble protein abundance was 0.954 ± 0.066.

Question: For “K7EPA3 and related entries (UniProt Q9NX61)”, which NP40-soluble protein abundance is on record?
Answer: Its NP40-soluble protein abundance is 0.9135 ± 0.0037.

Question: For “K7ENL9 and related entries (UniProt Q96DM3)”, which NP40-soluble protein abundance is on record?
Answer: Its NP40-soluble protein abundance is 0.943 ± 0.02.

Question: Which NP40-soluble protein abundance does the source give for UniProt O14646 and related entries here?
Answer: Its NP40-soluble protein abundance is 1.23 ± 0.077.

Question: UniProt O15020 and related entries was tested. Which NP40-soluble protein abundance did it give?
Answer: Its NP40-soluble protein abundance is 1.03 ± 0.023.

Question: For ZZEF1 (UniProt O43149), which NP40-soluble protein abundance is on record?
Answer: The NP40-soluble protein abundance was 0.949 ± 0.072.

Question: How did the NP40-soluble protein abundance turn out when CDIPT (UniProt O14735) was run?
Answer: The NP40-soluble protein abundance was 1 ± 0.019.

Question: TAX1BP3 (UniProt O14907) was tested. Which NP40-soluble protein abundance did it give?
Answer: The NP40-soluble protein abundance was 1.01 ± 0.033.

Question: With HNRNPR (UniProt O43390) as the target, how does the NP40-soluble protein abundance read?
Answer: Its NP40-soluble protein abundance is 0.973 ± 0.17.

Question: For “M0R2B7 and related entries (UniProt P28340)”, which NP40-soluble protein abundance is on record?
Answer: The NP40-soluble protein abundance was 0.919 ± 0.031.

Question: Which NP40-soluble protein abundance does the source give for DHX15 (UniProt O43143) here?
Answer: Its NP40-soluble protein abundance is 1.14 ± 0.074.

Question: With UniProt O43156 as the target, how does the NP40-soluble protein abundance read?
Answer: The NP40-soluble protein abundance was 0.95 ± 0.027.

Question: “K7ESQ0 and related entries (UniProt Q9H6Z4)” was tested. Which NP40-soluble protein abundance did it give?
Answer: The NP40-soluble protein abundance was 1.008 ± 0.0041.

Question: With CLIC1 (UniProt O00299) as the target, how does the NP40-soluble protein abundance read?
Answer: Its NP40-soluble protein abundance is 1.02 ± 0.066.

Question: PLRG1 (UniProt O43660) was tested. Which NP40-soluble protein abundance did it give?
Answer: The NP40-soluble protein abundance was 1.14 ± 0.033.

Question: Which NP40-soluble protein abundance does the source give for M0QZR4 (UniProt Q92888) here?
Answer: The NP40-soluble protein abundance was 1.023 ± 0.0033.

Question: Which NP40-soluble protein abundance does the source give for UniProt O43829 here?
Answer: Its NP40-soluble protein abundance is 1.05 ± 0.035.

Question: PFAS (UniProt O15067) was tested. Which NP40-soluble protein abundance did it give?
Answer: The NP40-soluble protein abundance was 0.9737 ± 0.0096.

Question: For HTATSF1 (UniProt O43719), which NP40-soluble protein abundance is on record?
Answer: The NP40-soluble protein abundance was 1.02 ± 0.023.

Question: Which NP40-soluble protein abundance does the source give for “O14925 and related entries (UniProt Q5SRD1+O14925)” here?
Answer: The NP40-soluble protein abundance was 0.997 ± 0.025.

Question: For UniProt O43665 and related entries, which NP40-soluble protein abundance is on record?
Answer: Its NP40-soluble protein abundance is 0.911 ± 0.026.

Question: For UniProt O15391, which NP40-soluble protein abundance is on record?
Answer: The NP40-soluble protein abundance was 1.09 ± 0.033.

Question: With “M0R208 and related entries (UniProt Q16740)” as the target, how does the NP40-soluble protein abundance read?
Answer: The NP40-soluble protein abundance was 1.04 ± 0.015.

Question: How did the NP40-soluble protein abundance turn out when UniProt O14639 and related entries was run?
Answer: Its NP40-soluble protein abundance is 1.049 ± 0.0085.

Question: With PGRMC1 (UniProt O00264) as the target, how does the NP40-soluble protein abundance read?
Answer: Its NP40-soluble protein abundance is 0.947 ± 0.021.

Question: With SCO2 (UniProt O43819) as the target, how does the NP40-soluble protein abundance read?
Answer: The NP40-soluble protein abundance was 0.991 ± 0.04.

same assay, conditions: concentration: 6mM

Question: For GTPBP1 (UniProt O00178), which NP40-soluble protein abundance is on record?
Answer: Its NP40-soluble protein abundance is 1.09 ± 0.016.

Question: For PIK3C2A (UniProt O00443), which NP40-soluble protein abundance is on record?
Answer: The NP40-soluble protein abundance was 1.09 ± 0.025.

Question: Which NP40-soluble protein abundance does the source give for UQCRQ (UniProt O14949) here?
Answer: Its NP40-soluble protein abundance is 0.92 ± 0.08.

Question: ARPC2 (UniProt O15144) was tested. Which NP40-soluble protein abundance did it give?
Answer: Its NP40-soluble protein abundance is 0.976 ± 0.031.

Question: Which NP40-soluble protein abundance does the source give for XPO1 (UniProt O14980) here?
Answer: Its NP40-soluble protein abundance is 0.937 ± 0.05.

Question: For PAPSS1 (UniProt O43252), which NP40-soluble protein abundance is on record?
Answer: Its NP40-soluble protein abundance is 0.947 ± 0.021.

Question: With RRP9 (UniProt O43818) as the target, how does the NP40-soluble protein abundance read?
Answer: The NP40-soluble protein abundance was 1.12 ± 0.02.

Question: CHMP2A (UniProt O43633) was tested. Which NP40-soluble protein abundance did it give?
Answer: Its NP40-soluble protein abundance is 0.966 ± 0.043.

Question: Which NP40-soluble protein abundance does the source give for BCAT2 (UniProt O15382) here?
Answer: The NP40-soluble protein abundance was 0.9262 ± 0.0036.

Question: “M0QYS1 and related entries (UniProt P40429)” was tested. Which NP40-soluble protein abundance did it give?
Answer: The NP40-soluble protein abundance was 0.911 ± 0.046.

Question: With “K7EPA3 and related entries (UniProt Q9NX61)” as the target, how does the NP40-soluble protein abundance read?
Answer: Its NP40-soluble protein abundance is 0.952 ± 0.032.

Question: “K7ENL9 and related entries (UniProt Q96DM3)” was tested. Which NP40-soluble protein abundance did it give?
Answer: The NP40-soluble protein abundance was 0.936 ± 0.032.

Question: UniProt O14646 and related entries was tested. Which NP40-soluble protein abundance did it give?
Answer: Its NP40-soluble protein abundance is 1.33 ± 0.14.

Question: How did the NP40-soluble protein abundance turn out when UniProt O15020 and related entries was run?
Answer: The NP40-soluble protein abundance was 1.01 ± 0.032.

Question: How did the NP40-soluble protein abundance turn out when ZZEF1 (UniProt O43149) was run?
Answer: Its NP40-soluble protein abundance is 0.932 ± 0.099.

Question: With CDIPT (UniProt O14735) as the target, how does the NP40-soluble protein abundance read?
Answer: Its NP40-soluble protein abundance is 1.01 ± 0.088.

Question: How did the NP40-soluble protein abundance turn out when TAX1BP3 (UniProt O14907) was run?
Answer: The NP40-soluble protein abundance was 1.03 ± 0.016.

Question: For HNRNPR (UniProt O43390), which NP40-soluble protein abundance is on record?
Answer: The NP40-soluble protein abundance was 1 ± 0.17.

Question: For “M0R2B7 and related entries (UniProt P28340)”, which NP40-soluble protein abundance is on record?
Answer: The NP40-soluble protein abundance was 0.9002 ± 0.0066.

Question: DHX15 (UniProt O43143) was tested. Which NP40-soluble protein abundance did it give?
Answer: The NP40-soluble protein abundance was 1.17 ± 0.053.

Question: Which NP40-soluble protein abundance does the source give for UniProt O43156 here?
Answer: The NP40-soluble protein abundance was 0.928 ± 0.014.

Question: With “K7ESQ0 and related entries (UniProt Q9H6Z4)” as the target, how does the NP40-soluble protein abundance read?
Answer: Its NP40-soluble protein abundance is 1.01 ± 0.031.

Question: How did the NP40-soluble protein abundance turn out when CLIC1 (UniProt O00299) was run?
Answer: The NP40-soluble protein abundance was 1.1 ± 0.091.

Question: How did the NP40-soluble protein abundance turn out when PLRG1 (UniProt O43660) was run?
Answer: Its NP40-soluble protein abundance is 1.13 ± 0.085.

Question: With M0QZR4 (UniProt Q92888) as the target, how does the NP40-soluble protein abundance read?
Answer: The NP40-soluble protein abundance was 1.005 ± 0.0088.

Question: How did the NP40-soluble protein abundance turn out when UniProt O43829 was run?
Answer: The NP40-soluble protein abundance was 1.041 ± 0.0073.

Question: Which NP40-soluble protein abundance does the source give for PFAS (UniProt O15067) here?
Answer: Its NP40-soluble protein abundance is 0.967 ± 0.024.

Question: For HTATSF1 (UniProt O43719), which NP40-soluble protein abundance is on record?
Answer: The NP40-soluble protein abundance was 1.08 ± 0.022.

Question: With “O14925 and related entries (UniProt Q5SRD1+O14925)” as the target, how does the NP40-soluble protein abundance read?
Answer: Its NP40-soluble protein abundance is 1 ± 0.052.

Question: UniProt O43665 and related entries was tested. Which NP40-soluble protein abundance did it give?
Answer: The NP40-soluble protein abundance was 0.895 ± 0.012.

Question: With UniProt O15391 as the target, how does the NP40-soluble protein abundance read?
Answer: Its NP40-soluble protein abundance is 1.06 ± 0.013.

Question: “M0R208 and related entries (UniProt Q16740)” was tested. Which NP40-soluble protein abundance did it give?
Answer: Its NP40-soluble protein abundance is 0.98 ± 0.018.

Question: UniProt O14639 and related entries was tested. Which NP40-soluble protein abundance did it give?
Answer: Its NP40-soluble protein abundance is 1.05 ± 0.039.

Question: Which NP40-soluble protein abundance does the source give for PGRMC1 (UniProt O00264) here?
Answer: The NP40-soluble protein abundance was 0.938 ± 0.052.

Question: SCO2 (UniProt O43819) was tested. Which NP40-soluble protein abundance did it give?
Answer: The NP40-soluble protein abundance was 0.95 ± 0.027.
